Data published in paper PMC10163288.
The other results are listed elsewhere or left out.

B1: il10ra_site1_sap_20_mot_HHH_b2_00441_000000147_0001_1_18_H_._HHH_b2_06532_0001_0000500051_0000002_0_0001 (protein)
chain: SSSSSDEEVWELLREALELLANGNPEEAEEVVEEAERLAKEAGSRVMRLQVEFLLRAIRLSSSSS
B2: il10ra_site1_normal_mot_HHH_b2_06857_af2_000000179_0001_42_54_H_._HHH_b2_07752_af2_0001_0000500038_0000002_0 (protein)
chain: SSSSNELHEELYELIRKAAELARNGNPEEAEKVLEEARKIAEELNNELAEFQIRFLERLLSSSSS
B3: il10ra_site1_normal_mot_HHH_b1_00999_000000080_0001_41_55_H_._HHH_b2_01363_af2_0001_0000200003_0000001_0 (protein)
chain: SSSSSSEEVEERVEELLEEAKHIEDPREAMRVLLEALQIAIENNNEELLQEVWRIIKELGSSSSS
B4: il10ra_site1_sap_19_mot_HHH_b1_04704_af2_000000076_0001_43_57_H_._HHH_b2_05647_0001_0000200009_0000001_0_0001 (protein)
chain: SSSSEEAYEIVHEANRQAIELAEEGDPEEARKLLEEALELLEEAGNFSAVFALRHSLRRQVSSSS
B5: il10ra_site1_normal_mot_HHH_b2_03220_af2_000000223_0001_23_40_H_._HHH_b2_03020_af2_0001_0000100003_0000001_0 (protein)
chain: SSSSSSDEREEVWELLRKALHIEDEEEARRIVEKAEELAEELGSELLVIQARFLLRNLSSSSSSS
B6: il10ra_site1_sap_17_mot_HHH_b1_00999_000000080_0001_41_55_H_._HHH_b2_05434_0001_0000300025_0000001_0_0001 (protein)
chain: SSSSDEEVRELLREAEELVEEGDPEEAAKLLQEAVQFAIHLKDAELLREVWEVVRRIAERRSSSS
B7: il10ra_site1_sap_20_mot_HHH_b1_06804_000000054_0001_40_54_H_._HHH_b2_07125_0001_0000200015_0000001_0_0001 (protein)
chain: SSSSSSSEAVHLSLEAFRLALRGNPEEAEKVLEEALEIAEEENDPIAEIIEDLLRAIGSSSSSSS
B8: il10ra_site1_sap_16_mot_HHH_b2_00984_000000042_0001_1_20_H_._4c4ac6cabe4c261757e68d3976ab26f5_0001_af2_0001_0000600027_0000001_0_0001_af2pred_0001 (protein)
chain: SSSSDDDERFIELTLRFAKWLIEQGDEEAAKFFLKAAIEQAERLNDEEILEELERLLQELSSSSS
B9: il10ra_site1_sap_22_mot_HHH_b1_06789_af2_000000041_0001_1_20_H_._HHH_b2_01051_af2_0001_0000500011_0000001_0_0001 (protein)
chain: SSSSDELERLLEELEEAVEEGDEELVLRLQHRVLRLAIQLSDEEVFQAVWRLYKEFAKRRSSSSS
B10: il10ra_site1_normal_mot_HHH_b1_05370_000000138_0001_1_16_H_._HHH_b1_04757_af2_0001_0000100005_0000001_0_af2pred_dldesign_0_af2pred (protein)
chain: SSSSSEAEELFEKTTKELKALLAAGKVDEAYKLLKEAIEKLVELNAPELARALANLFLEGSSSSS
B11: il10ra_site1_sap_17_mot_HHH_b2_02354_af2_000000157_0001_40_56_H_._HHH_b1_04654_af2_0001_0000300021_0000001_0_0001 (protein)
chain: SSSSDEEIREEVERLLEEAKHIEDAQEAYELLKRAIELAIELGDPELERLVHEVIREWLKKSSSS
B12: il10ra_site1_sap_15_mot_bc09c72237e61002eddc20b9c710af39_0001_1_000000219_0001_36_50_H_._HHH_b1_00619_af2_0001_0000100004_0000001_0_0001 (protein)
chain: SSSSSLSQRVIETLREVARLINEGNPEEAEELLERLLEEVEKAGNRLLEVQVRFMLRLERSSSSS
B13: il10ra_site1_sap_23_mot_HHH_b1_07211_af2_000000161_0001_24_40_H_._HHH_b2_05770_af2_0001_0000200004_0000001_0_0001 (protein)
chain: SSSSSDSVVRLIAEAVRAAMHKGDREALQELWELVHKLGNGITSEEEAQEIAERILEELGSSSSS
B14: il10ra_site1_sap_25_mot_HHH_b1_05937_af2_000000262_0001_20_37_H_._HHH_b1_06457_af2_0001_0000100002_0000001_0_0001 (protein)
chain: SSSSQEWFEEVKKLIELIIEAQREGDEELVKELLERLRELIEEAGSWSLRHDLKMLEEMLNSSSS
B15: il10ra_site1_sap_20_mot_HHH_b2_06321_af2_000000133_0001_42_55_H_._HHH_b1_07996_af2_0001_0000400031_0000002_0_0001 (protein)
chain: SSSSDREEAEELFQLVWEAIKKGDKELLEKLEEEVEELLKETGDPNVRALLELIRLALEVLSSSS
B16: il10ra_site1_normal_mot_HHH_b2_00984_000000042_0001_1_20_H_._HHH_b2_06760_af2_0001_0000300021_0000001_0 (protein)
chain: SSSSDEEREELEELIRELRELLENGDPERALRVAQEAIRLAFRSNDPELLQELWEVIKRHFSSSS
B17: il10ra_site1_normal_mot_HHH_b2_02053_af2_000000006_0001_3_19_H_._HHH_b1_04635_af2_0001_0000400020_0000002_0 (protein)
chain: SSSSDEATEEVYELLREALELRAQGNPEEAEEVLRRAEELAEEKNNRVLLIAVEFLLRELSSSSS
B18: il10ra_site1_sap_19_mot_HHH_b1_01821_000000158_0001_23_39_H_._HHH_b2_02252_af2_0001_0000200016_0000002_0_0001 (protein)
chain: SSSSTEELYKLLRRIVELLHEGNVEEAKELIEEVKELAEENNDQLFLKNVEHLERDLRRLGSSSS
B19: il10ra_site1_normal_mot_HHH_b1_01779_000000096_0001_43_57_H_._HHH_b2_08219_0001_0000100005_0000001_0_af2pred_0001 (protein)
chain: SSSSNKEEAERSVRLLLELAKRLEDPERARAALRDARRTAEYVNDPELEELVEEVEREVLSSSSS

Biological target: il10ra, Q13651
Test: yeast display titration

Binder | apparent Kd
B1 | inactive: no binding seen
B2 | inactive: no binding seen
B3 | inactive: no binding seen
B4 | inactive: no binding seen
B5 | inactive: no binding seen
B6 | inactive: no binding seen
B7 | inactive: no binding seen
B8 | inactive: no binding seen
B9 | inactive: no binding seen
B10 | inactive: no binding seen
B11 | inactive: no binding seen
B12 | inactive: no binding seen
B13 | inactive: no binding seen
B14 | inactive: no binding seen
B15 | inactive: no binding seen
B16 | inactive: no binding seen
B17 | inactive: no binding seen
B18 | inactive: no binding seen
B19 | inactive: no binding seen

Copied from the list.
Under apparent Kd, B7 has the entry inactive: no binding seen
Under apparent Kd, B10 has the entry inactive: no binding seen
